Measured values reported in publication PMC6345024.
Results are given in words; binding and its absence hold for the method and conditions named. Binding seen in cells or lysates may run through a third protein. Some binding calls cover weakened binding; strength is not graded here.

Chains of the proteins cited; added tags and fusions are not shown.
UniProt P29351: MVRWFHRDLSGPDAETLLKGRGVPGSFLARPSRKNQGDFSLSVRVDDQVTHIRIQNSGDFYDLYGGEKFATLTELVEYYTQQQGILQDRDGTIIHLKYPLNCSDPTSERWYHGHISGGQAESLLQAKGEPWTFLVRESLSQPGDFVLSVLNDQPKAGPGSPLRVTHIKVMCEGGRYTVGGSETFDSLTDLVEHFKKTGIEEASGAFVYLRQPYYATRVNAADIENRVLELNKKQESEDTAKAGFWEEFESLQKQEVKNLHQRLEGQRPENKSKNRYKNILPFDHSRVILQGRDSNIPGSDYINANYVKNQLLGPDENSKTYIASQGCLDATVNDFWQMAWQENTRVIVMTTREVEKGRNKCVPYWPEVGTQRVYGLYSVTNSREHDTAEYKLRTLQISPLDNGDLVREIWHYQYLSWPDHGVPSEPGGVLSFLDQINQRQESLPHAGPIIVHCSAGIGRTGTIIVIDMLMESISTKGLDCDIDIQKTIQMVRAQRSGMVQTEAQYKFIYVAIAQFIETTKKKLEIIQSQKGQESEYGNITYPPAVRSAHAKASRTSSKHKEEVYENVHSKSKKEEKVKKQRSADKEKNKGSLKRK
UniProt P25911: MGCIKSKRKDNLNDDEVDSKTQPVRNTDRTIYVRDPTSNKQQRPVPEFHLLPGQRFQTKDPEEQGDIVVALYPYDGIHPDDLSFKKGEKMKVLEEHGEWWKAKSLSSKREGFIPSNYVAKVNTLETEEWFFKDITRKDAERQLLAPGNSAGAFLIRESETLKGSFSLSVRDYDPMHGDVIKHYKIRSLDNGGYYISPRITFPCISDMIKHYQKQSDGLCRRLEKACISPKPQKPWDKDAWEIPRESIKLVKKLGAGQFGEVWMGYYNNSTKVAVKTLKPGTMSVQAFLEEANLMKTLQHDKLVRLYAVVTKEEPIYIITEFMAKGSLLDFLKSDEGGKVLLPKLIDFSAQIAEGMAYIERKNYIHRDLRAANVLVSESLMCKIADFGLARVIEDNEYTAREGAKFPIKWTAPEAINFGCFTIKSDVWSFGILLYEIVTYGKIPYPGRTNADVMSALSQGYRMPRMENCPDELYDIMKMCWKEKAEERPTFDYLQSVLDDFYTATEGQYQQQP

T1: CEACAM1 (mouse (endogenous in bone marrow monocytes)) (UniProt P31809)
T1 sequence (chain, phosphorylated on tyrosine after LPS treatment (4G10 blot); residue not stated): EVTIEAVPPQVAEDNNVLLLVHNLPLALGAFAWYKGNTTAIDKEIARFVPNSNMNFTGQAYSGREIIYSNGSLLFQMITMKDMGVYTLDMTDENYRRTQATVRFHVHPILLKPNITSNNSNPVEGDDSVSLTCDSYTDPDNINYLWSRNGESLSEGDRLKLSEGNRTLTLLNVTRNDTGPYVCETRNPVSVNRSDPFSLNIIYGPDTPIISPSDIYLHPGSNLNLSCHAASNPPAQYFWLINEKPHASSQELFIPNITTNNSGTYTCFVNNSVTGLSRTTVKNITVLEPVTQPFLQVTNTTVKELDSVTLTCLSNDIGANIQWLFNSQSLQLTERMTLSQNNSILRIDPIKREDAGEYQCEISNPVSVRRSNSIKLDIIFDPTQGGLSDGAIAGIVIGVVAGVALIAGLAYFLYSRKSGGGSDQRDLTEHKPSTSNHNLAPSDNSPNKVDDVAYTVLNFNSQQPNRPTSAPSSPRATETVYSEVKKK

T2: RP105 (CD180) (mouse (endogenous in bone marrow monocytes)) (UniProt Q62192)
T2 sequence: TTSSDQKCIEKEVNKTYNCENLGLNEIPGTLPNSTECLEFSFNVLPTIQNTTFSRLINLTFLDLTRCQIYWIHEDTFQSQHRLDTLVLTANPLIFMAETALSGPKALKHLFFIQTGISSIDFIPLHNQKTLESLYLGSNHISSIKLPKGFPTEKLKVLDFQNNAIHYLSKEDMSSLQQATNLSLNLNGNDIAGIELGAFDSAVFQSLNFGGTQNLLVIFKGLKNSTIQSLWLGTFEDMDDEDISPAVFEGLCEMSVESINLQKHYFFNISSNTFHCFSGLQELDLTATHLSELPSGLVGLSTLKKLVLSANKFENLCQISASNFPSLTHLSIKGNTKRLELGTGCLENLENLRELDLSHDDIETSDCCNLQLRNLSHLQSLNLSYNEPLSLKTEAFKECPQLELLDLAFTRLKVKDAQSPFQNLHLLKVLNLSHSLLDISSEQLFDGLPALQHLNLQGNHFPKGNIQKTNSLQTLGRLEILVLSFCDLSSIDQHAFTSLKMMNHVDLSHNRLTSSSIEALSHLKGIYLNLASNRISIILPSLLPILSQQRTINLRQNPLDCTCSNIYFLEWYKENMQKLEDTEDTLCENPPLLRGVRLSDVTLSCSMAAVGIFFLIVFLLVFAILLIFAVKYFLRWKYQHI

B1: MD1 (protein, UniProt O88188 20-162)
chain: DHGSENGWPKHTACNSGGLEVVYQSCDPLQDFGLSIDQCSKQIQSNLNIRFGIILRQDIRKLFLDITLMAKGSSILNYSYPLCEEDQPKFSFCGRRKGEQIYYAGPVNNPGLDVPQGEYQLLLELYNENRATVACANATVTSS
B2: phospho-VAV1 (protein, UniProt P27870 1-845)
chain: MELWRQCTHWLIQCRVLPPSHRVTWEGAQVCELAQALRDGVLLCQLLNNLLPQAINLREVNLRPQMSQFLCLKNIRTFLSTCCEKFGLKRSELFEAFDLFDVQDFGKVIYTLSALSWTPIAQNKGIMPFPTEDSALNDEDIYSGLSDQIDDTAEEDEDLYDCVENEEAEGDEIYEDLMRLESVPTPPKMTEYDKRCCCLREIQQTEEKYTDTLGSIQQHFMKPLQRFLKPQDMETIFVNIEELFSVHTHFLKELKDALAGPGATTLYQVFIKYKERFLVYGRYCSQVESASKHLDQVATAREDVQMKLEECSQRANNGRFTLRDLLMVPMQRVLKYHLLLQELVKHTQDATEKENLRLALDAMRDLAQCVNEVKRDNETLRQITNFQLSIENLDQSLANYGRPKIDGELKITSVERRSKTDRYAFLLDKALLICKRRGDSYDLKASVNLHSFQVRDDSSGERDNKKWSHMFLLIEDQGAQGYELFFKTRELKKKWMEQFEMAISNIYPENATANGHDFQMFSFEETTSCKACQMLLRGTFYQGYRCYRCRAPAHKECLGRVPPCGRHGQDFAGTMKKDKLHRRAQDKKRNELGLPKMEVFQEYYGIPPPPGAFGPFLRLNPGDIVELTKAEAEHNWWEGRNTATNEVGWFPCNRVHPYVHGPPQDLSVHLWYAGPMERAGAEGILTNRSDGTYLVRQRVKDTAEFAISIKYNVEVKHIKIMTSEGLYRITEKKAFRGLLELVEFYQQNSLKDCFKSLDTTLQFPYKEPERRAISKPPAGSTKYFGTAKARYDFCARDRSELSLKEGDIIKILNKKGQQGWWRGEIYGRIGWFPSNYVEEDYSEYC
modifications: phosphotyrosine at Y160 (detected with phospho-VAV1 Y160 pAb)
B3: CD14 (receptor, UniProt P10810 16-336)
chain: SPAPPEPCELDEESCSCNFSDPKPDWSSAFNCLGAADVELYGGGRSLEYLLKRVDTEADLGQFTDIIKSLSLKRLTVRAARIPSRILFGALRVLGISGLQELTLENLEVTGTAPPPLLEATGPDLNILNLRNVSWATRDAWLAELQQWLKPGLKVLSIAQAHSLNFSCEQVRVFPALSTLDLSDNPELGERGLISALCPLKFPTLQVLALRNAGMETPSGVCSALAAARVQLQGLDLSHNSLRDAAGAPSCDWPSQLNSLNLSFTGLKQVPKGLPAKLSVLDLSYNRLDRNPSPDELPQVGNLSLKGNPFLDSESHSEKFN

Key:
[1] = target: T1, CEACAM1 (mouse (endogenous in bone marrow monocytes)); assay: co-IP; IP with anti-CEACAM1 (clone MAb-CC1) and protein A/G plus agarose from lysates of WT bone marrow monocytes, with or without 500 ng/mL LPS for 15 min; immunoblot
[2] = target: T2, RP105 (CD180) (mouse (endogenous in bone marrow monocytes)); assay: co-IP; IP with anti-RP105 (clone RP/14) and protein A/G plus agarose from lysates of negatively isolated bone marrow monocytes of WT and Ceacam1-/- mice, with or without 500 ng/mL LPS for 15 min; immunoblot
[3] = target: T2, RP105 (CD180) (mouse (endogenous in bone marrow monocytes)); assay: as above; remark: listed apart in the source
[4] = target: T2, RP105 (CD180) (mouse (endogenous in bone marrow monocytes)); assay: condition: only WT monocytes after 500 ng/mL LPS for 15 min; co-IP; IP with anti-RP105 (clone RP/14) and protein A/G plus agarose from lysates of WT bone marrow monocytes after 500 ng/mL LPS for 15 min; immunoblot

| Molecule | binding [3] | further results |
| --- | --- | --- |
| phospho-SHP-1 (from UniProt P29351 1-595) (enzyme) |  | binding [1]: binds |
| Lyn (from UniProt P25911 1-512) (enzyme) |  | binding [2]: no binding |
| B1 | binds |  |
| B2 | binds | binding [4]: no binding |
| B3 | binds |  |
